From patent US6660310B2, “Method to infuse fresh fruits and vegetables with an agent” (American Moxie LLC, priority 2000, dated 2003)

What was measured:
Strawberry [1] = test: Experiment 3: amount of glutamate infused with surfactant in the infusion bath; set-up: species or system strawberries; settings: 30 kPa for 10 minutes
Celery [2] = test: Experiment 4: amount of glutamate infused at varied agent concentration in the bath; settings: 30 kPa for 10 minutes
Tomato [3] = test: Experiment 2: amount of 3H glutamate infused at various pressures; set-up: species or system cherry tomatoes; settings: 15 minute, 2% 3H glutamate bath
Apple [4] = test: Experiment 4: amount of glutamate infused at varied agent concentration in the bath; set-up: species or system Gala apples; settings: 30 kPa for 10 minutes
Apple [5] = test: Experiment 2: amount of 3H glutamate infused at various pressures; set-up: species or system Gala apples; settings: 15 minute, 2% 3H glutamate bath
Strawberry [6] = test: Experiment 4: amount of glutamate infused at varied agent concentration in the bath; set-up: species or system strawberries; settings: 30 kPa for 10 minutes
Tomato [7] = test: Experiment 3: amount of glutamate infused with surfactant in the infusion bath; set-up: species or system cherry tomatoes; settings: 30 kPa for 10 minutes
Grape [8] = test: Experiment 2: amount of 3H glutamate infused at various pressures; set-up: species or system seedless grapes; settings: 15 minute, 2% 3H glutamate bath
Strawberry [9] = test: as above; set-up: species or system strawberries; settings: 15 minute, 2% 3H glutamate bath
Grape [10] = test: Experiment 4: amount of glutamate infused at varied agent concentration in the bath; set-up: species or system seedless grapes; settings: 30 kPa for 10 minutes
Tomato [11] = test: as above; set-up: species or system cherry tomatoes; settings: 30 kPa for 10 minutes
Celery [12] = test: Experiment 3: amount of glutamate infused with surfactant in the infusion bath; settings: 30 kPa for 10 minutes
Celery [13] = test: Experiment 2: amount of 3H glutamate infused at various pressures; settings: 15 minute, 2% 3H glutamate bath
Carrot [14] = test: as above; set-up: species or system carrots; settings: 15 minute, 2% 3H glutamate bath
Carrot [15] = test: Experiment 4: amount of glutamate infused at varied agent concentration in the bath; set-up: species or system carrots; settings: 30 kPa for 10 minutes
Apple [16] = test: Experiment 3: amount of glutamate infused with surfactant in the infusion bath; set-up: species or system Gala apples; settings: 30 kPa for 10 minutes
Carrot [17] = test: as above; set-up: species or system carrots; settings: 30 kPa for 10 minutes
Tomato [18] = test: Experiment 5: infusion of various agents, amount infused; set-up: species or system cherry tomatoes; settings: bath 2% agent, 0.001% Tween 20, 30 kPa for 10 minutes, Ca++, Zn++ by AA Spectroscopy after subtraction of initial levels
Grape [19] = test: as above; set-up: species or system seedless grapes; settings: bath 2% agent, 0.001% Tween 20, 30 kPa for 10 minutes, Ca++, Zn++ by AA Spectroscopy after subtraction of initial levels

`N[C@@H](CCC(=O)O)C(=O)O` [glutamate] was tested, and the “infused agent (glutamate) per gram fresh weight tissue” value (Strawberry [1]; 0.001% Tween 20 in bath) was 688 μg per gram fresh weight, the “infused agent (glutamate) per gram fresh weight tissue” value (Strawberry [1]; 0.0015 Silwet in bath) was 721 μg per gram fresh weight and the “infused agent (glutamate) per gram fresh weight tissue” value (Strawberry [1]; no surfactant) was 658 μg per gram fresh weight. The “infused agent (glutamate) per gram fresh weight tissue” value (Celery [2]; agent @ 0.1% in bath) was 49 μg per gram fresh weight, the “infused agent (glutamate) per gram fresh weight tissue” value (Celery [2]; agent @ 1% in bath) was 235 μg per gram fresh weight and the “infused agent (glutamate) per gram fresh weight tissue” value (Celery [2]; agent @ 2% in bath) was 577 μg per gram fresh weight. For the same compound, the “infused agent (glutamate) per gram fresh weight tissue” value (Celery [2]; agent @ 4% in bath) was 723 μg per gram fresh weight, the “infused agent (glutamate) per gram fresh weight tissue” value (Celery [2]; agent @ 10% in bath) was 1,298 μg per gram fresh weight and the “infused agent (glutamate) per gram fresh weight material” value (Tomato [3]; 0 kPa) was 13 μg per gram fresh weight. The “infused agent (glutamate) per gram fresh weight material” value (Tomato [3]; 10 kPa) was 198 μg per gram fresh weight, the “infused agent (glutamate) per gram fresh weight material” value (Tomato [3]; 20 kPa) was 388 μg per gram fresh weight and the “infused agent (glutamate) per gram fresh weight material” value (Tomato [3]; 30 kPa) was 531 μg per gram fresh weight. The “infused agent (glutamate) per gram fresh weight material” value (Tomato [3]; 50 kPa) was 653 μg per gram fresh weight, the “infused agent (glutamate) per gram fresh weight material” value (Tomato [3]; 75 kPa) was 672 μg per gram fresh weight and the “infused agent (glutamate) per gram fresh weight material” value (Tomato [3]; 100 kPa) was 641 μg per gram fresh weight. For the same compound, the “infused agent (glutamate) per gram fresh weight tissue” value (Apple [4]; agent @ 0.1% in bath) was 29 μg per gram fresh weight, the “infused agent (glutamate) per gram fresh weight tissue” value (Apple [4]; agent @ 1% in bath) was 171 μg per gram fresh weight and the “infused agent (glutamate) per gram fresh weight tissue” value (Apple [4]; agent @ 2% in bath) was 318 μg per gram fresh weight. The “infused agent (glutamate) per gram fresh weight tissue” value (Apple [4]; agent @ 4% in bath) was 567 μg per gram fresh weight, the “infused agent (glutamate) per gram fresh weight tissue” value (Apple [4]; agent @ 10% in bath) was 1,273 μg per gram fresh weight and the “infused agent (glutamate) per gram fresh weight material” value (Apple [5]; 0 kPa) was 5 μg per gram fresh weight. The “infused agent (glutamate) per gram fresh weight material” value (Apple [5]; 10 kPa) was 110 μg per gram fresh weight, the “infused agent (glutamate) per gram fresh weight material” value (Apple [5]; 20 kPa) was 319 μg per gram fresh weight and the “infused agent (glutamate) per gram fresh weight material” value (Apple [5]; 30 kPa) was 374 μg per gram fresh weight. For the same compound, the “infused agent (glutamate) per gram fresh weight material” value (Apple [5]; 50 kPa) was 485 μg per gram fresh weight, the “infused agent (glutamate) per gram fresh weight material” value (Apple [5]; 75 kPa) was 459 μg per gram fresh weight and the “infused agent (glutamate) per gram fresh weight material” value (Apple [5]; 100 kPa) was 501 μg per gram fresh weight. For the same compound, the “infused agent (glutamate) per gram fresh weight tissue” value (Strawberry [6]; agent @ 0.1% in bath) was 72 μg per gram fresh weight, the “infused agent (glutamate) per gram fresh weight tissue” value (Strawberry [6]; agent @ 1% in bath) was 338 μg per gram fresh weight and the “infused agent (glutamate) per gram fresh weight tissue” value (Strawberry [6]; agent @ 2% in bath) was 541 μg per gram fresh weight. For the same compound, the “infused agent (glutamate) per gram fresh weight tissue” value (Strawberry [6]; agent @ 4% in bath) was 829 μg per gram fresh weight, the “infused agent (glutamate) per gram fresh weight tissue” value (Strawberry [6]; agent @ 10% in bath) was 1,589 μg per gram fresh weight and the “infused agent (glutamate) per gram fresh weight tissue” value (Tomato [7]; 0.001% Tween 20 in bath) was 703 μg per gram fresh weight. For the same compound, the “infused agent (glutamate) per gram fresh weight tissue” value (Tomato [7]; 0.0015 Silwet in bath) was 737 μg per gram fresh weight, the “infused agent (glutamate) per gram fresh weight tissue” value (Tomato [7]; no surfactant) was 547 μg per gram fresh weight and the “infused agent (glutamate) per gram fresh weight material” value (Grape [8]; 0 kPa) was 15 μg per gram fresh weight. The “infused agent (glutamate) per gram fresh weight material” value (Grape [8]; 10 kPa) was 247 μg per gram fresh weight, the “infused agent (glutamate) per gram fresh weight material” value (Grape [8]; 20 kPa) was 372 μg per gram fresh weight and the “infused agent (glutamate) per gram fresh weight material” value (Grape [8]; 30 kPa) was 443 μg per gram fresh weight. For the same compound, the “infused agent (glutamate) per gram fresh weight material” value (Grape [8]; 50 kPa) was 466 μg per gram fresh weight, the “infused agent (glutamate) per gram fresh weight material” value (Grape [8]; 75 kPa) was 457 μg per gram fresh weight and the “infused agent (glutamate) per gram fresh weight material” value (Grape [8]; 100 kPa) was 481 μg per gram fresh weight. For the same compound, the “infused agent (glutamate) per gram fresh weight material” value (Strawberry [9]; 0 kPa) was 22 μg per gram fresh weight, the “infused agent (glutamate) per gram fresh weight material” value (Strawberry [9]; 10 kPa) was 314 μg per gram fresh weight and the “infused agent (glutamate) per gram fresh weight material” value (Strawberry [9]; 20 kPa) was 553 μg per gram fresh weight. For the same compound, the “infused agent (glutamate) per gram fresh weight material” value (Strawberry [9]; 30 kPa) was 682 μg per gram fresh weight, the “infused agent (glutamate) per gram fresh weight material” value (Strawberry [9]; 50 kPa) was 821 μg per gram fresh weight and the “infused agent (glutamate) per gram fresh weight material” value (Strawberry [9]; 75 kPa) was 840 μg per gram fresh weight. The “infused agent (glutamate) per gram fresh weight material” value (Strawberry [9]; 100 kPa) was 779 μg per gram fresh weight, the “infused agent (glutamate) per gram fresh weight tissue” value (Grape [10]; agent @ 0.1% in bath) was 59 μg per gram fresh weight and the “infused agent (glutamate) per gram fresh weight tissue” value (Grape [10]; agent @ 1% in bath) was 192 μg per gram fresh weight. For the same compound, the “infused agent (glutamate) per gram fresh weight tissue” value (Grape [10]; agent @ 2% in bath) was 410 μg per gram fresh weight, the “infused agent (glutamate) per gram fresh weight tissue” value (Grape [10]; agent @ 4% in bath) was 722 μg per gram fresh weight and the “infused agent (glutamate) per gram fresh weight tissue” value (Grape [10]; agent @ 10% in bath) was 1,290 μg per gram fresh weight. The “infused agent (glutamate) per gram fresh weight tissue” value (Tomato [11]; agent @ 0.1% in bath) was 33 μg per gram fresh weight, the “infused agent (glutamate) per gram fresh weight tissue” value (Tomato [11]; agent @ 1% in bath) was 171 μg per gram fresh weight and the “infused agent (glutamate) per gram fresh weight tissue” value (Tomato [11]; agent @ 2% in bath) was 500 μg per gram fresh weight. The “infused agent (glutamate) per gram fresh weight tissue” value (Tomato [11]; agent @ 4% in bath) was 738 μg per gram fresh weight, the “infused agent (glutamate) per gram fresh weight tissue” value (Tomato [11]; agent @ 10% in bath) was 1,425 μg per gram fresh weight and the “infused agent (glutamate) per gram fresh weight tissue” value (Celery [12]; 0.001% Tween 20 in bath) was 769 μg per gram fresh weight. For the same compound, the “infused agent (glutamate) per gram fresh weight tissue” value (Celery [12]; 0.0015 Silwet in bath) was 812 μg per gram fresh weight, the “infused agent (glutamate) per gram fresh weight tissue” value (Celery [12]; no surfactant) was 638 μg per gram fresh weight and the “infused agent (glutamate) per gram fresh weight material” value (Celery [13]; 0 kPa) was 17 μg per gram fresh weight. For the same compound, the “infused agent (glutamate) per gram fresh weight material” value (Celery [13]; 10 kPa) was 231 μg per gram fresh weight, the “infused agent (glutamate) per gram fresh weight material” value (Celery [13]; 20 kPa) was 525 μg per gram fresh weight and the “infused agent (glutamate) per gram fresh weight material” value (Celery [13]; 30 kPa) was 613 μg per gram fresh weight. The “infused agent (glutamate) per gram fresh weight material” value (Celery [13]; 50 kPa) was 719 μg per gram fresh weight, the “infused agent (glutamate) per gram fresh weight material” value (Celery [13]; 75 kPa) was 733 μg per gram fresh weight and the “infused agent (glutamate) per gram fresh weight material” value (Celery [13]; 100 kPa) was 745 μg per gram fresh weight. For the same compound, the “infused agent (glutamate) per gram fresh weight material” value (Carrot [14]; 0 kPa) was 11 μg per gram fresh weight, the “infused agent (glutamate) per gram fresh weight material” value (Carrot [14]; 10 kPa) was 182 μg per gram fresh weight and the “infused agent (glutamate) per gram fresh weight material” value (Carrot [14]; 20 kPa) was 332 μg per gram fresh weight. For the same compound, the “infused agent (glutamate) per gram fresh weight material” value (Carrot [14]; 30 kPa) was 407 μg per gram fresh weight, the “infused agent (glutamate) per gram fresh weight material” value (Carrot [14]; 50 kPa) was 422 μg per gram fresh weight and the “infused agent (glutamate) per gram fresh weight material” value (Carrot [14]; 75 kPa) was 437 μg per gram fresh weight. For the same compound, the “infused agent (glutamate) per gram fresh weight material” value (Carrot [14]; 100 kPa) was 458 μg per gram fresh weight, the “infused agent (glutamate) per gram fresh weight tissue” value (Carrot [15]; agent @ 0.1% in bath) was 28 μg per gram fresh weight and the “infused agent (glutamate) per gram fresh weight tissue” value (Carrot [15]; agent @ 1% in bath) was 99 μg per gram fresh weight. The “infused agent (glutamate) per gram fresh weight tissue” value (Carrot [15]; agent @ 2% in bath) was 305 μg per gram fresh weight, the “infused agent (glutamate) per gram fresh weight tissue” value (Carrot [15]; agent @ 4% in bath) was 613 μg per gram fresh weight and the “infused agent (glutamate) per gram fresh weight tissue” value (Carrot [15]; agent @ 10% in bath) was 1,361 μg per gram fresh weight. The “infused agent (glutamate) per gram fresh weight tissue” value (Apple [16]; 0.001% Tween 20 in bath) was 413 μg per gram fresh weight, the “infused agent (glutamate) per gram fresh weight tissue” value (Apple [16]; 0.0015 Silwet in bath) was 464 μg per gram fresh weight and the “infused agent (glutamate) per gram fresh weight tissue” value (Apple [16]; no surfactant) was 348 μg per gram fresh weight. The “infused agent (glutamate) per gram fresh weight tissue” value (Carrot [17]; 0.001% Tween 20 in bath) was 491 μg per gram fresh weight, the “infused agent (glutamate) per gram fresh weight tissue” value (Carrot [17]; 0.0015 Silwet in bath) was 526 μg per gram fresh weight and the “infused agent (glutamate) per gram fresh weight tissue” value (Carrot [17]; no surfactant) was 389 μg per gram fresh weight.

With `COc1ccc(CN(CCN(C)C)c2ccccn2)cc1` [Pyrilamine, pyrilamine] the “infused agent per gram fresh weight” value (Tomato [18]) was 355 μg per gram fresh weight and the “infused agent per gram fresh weight” value (Grape [19]) was 381 μg per gram fresh weight.

For `C[C@]1(O)CC[C@H]2[C@@H]3CCC4=CC(=O)CCC4=C3C=C[C@@]21C` [Methyltrienolone, methyltrienolone], the “infused agent per gram fresh weight” value (Tomato [18]) was 400 μg per gram fresh weight and the “infused agent per gram fresh weight” value (Grape [19]) was 299 μg per gram fresh weight.
